No constants are given. Whether binding was seen depends on the method and setting. Some entries that bind do so weakly or less than the wild type.
Assays:
[1] = molecular target: 200 kD Cry1A toxin-binding protein of P. gossypiella BBMV (native BT-R2) (Pectinophora gossypiella); assay: ligand blot of PBW BBMV proteins
[2] = molecular target: 200 kD Cry1A toxin-binding protein of P. gossypiella BBMV (native BT-R2) (Pectinophora gossypiella); assay: radioligand blot of BBMV proteins
[3] = molecular target: Full-length PBW BT-R2 expressed in COS-7 cells (Pectinophora gossypiella); assay: immunofluorescent labeling of transfected COS-7 cells with Cry1Ab antibodies
[4] = molecular target: PBW-1269-1367, minimum binding fragment of BT-R2 (aa 1269-1367) (Pectinophora gossypiella); assay: truncation fragments tested for toxin binding
[5] = molecular target: T1, PBW-866 expressed protein (BT-R2 aa 1210-1496), 32 kD (Pectinophora gossypiella); assay: competition ligand blot
T1 sequence: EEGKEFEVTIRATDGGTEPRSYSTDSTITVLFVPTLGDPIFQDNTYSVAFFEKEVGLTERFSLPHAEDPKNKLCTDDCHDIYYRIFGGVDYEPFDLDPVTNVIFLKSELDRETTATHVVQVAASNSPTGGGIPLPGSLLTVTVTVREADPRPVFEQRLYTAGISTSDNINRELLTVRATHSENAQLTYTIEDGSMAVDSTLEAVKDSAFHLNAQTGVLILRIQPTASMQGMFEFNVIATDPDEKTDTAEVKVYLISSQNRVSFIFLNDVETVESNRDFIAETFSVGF

Amino acid sequences for entries named in this document (tags omitted). Residues count along the entry.
UniProt P0A366, residues 29-619: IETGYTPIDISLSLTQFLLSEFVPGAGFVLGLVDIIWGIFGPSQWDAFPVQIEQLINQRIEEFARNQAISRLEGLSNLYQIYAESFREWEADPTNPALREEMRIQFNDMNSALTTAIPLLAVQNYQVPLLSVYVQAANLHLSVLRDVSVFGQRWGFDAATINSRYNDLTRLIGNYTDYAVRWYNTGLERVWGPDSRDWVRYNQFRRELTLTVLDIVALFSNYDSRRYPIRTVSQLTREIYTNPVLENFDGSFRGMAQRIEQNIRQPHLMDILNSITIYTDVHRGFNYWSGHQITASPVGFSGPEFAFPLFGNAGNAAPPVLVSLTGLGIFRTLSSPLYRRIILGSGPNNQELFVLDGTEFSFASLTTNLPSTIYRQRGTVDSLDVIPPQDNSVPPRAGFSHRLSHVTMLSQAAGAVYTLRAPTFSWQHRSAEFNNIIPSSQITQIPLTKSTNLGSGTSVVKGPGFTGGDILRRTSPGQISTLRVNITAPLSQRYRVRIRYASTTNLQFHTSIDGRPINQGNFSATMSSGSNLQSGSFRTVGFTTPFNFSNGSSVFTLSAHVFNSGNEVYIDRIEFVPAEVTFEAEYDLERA

[6] = molecular target: T1, PBW-866 expressed protein (BT-R2 aa 1210-1496), 32 kD (Pectinophora gossypiella); assay: blot incubated with Cry1Ab toxin, then antiserum to the toxin
[7] = molecular target: 200 kD Cry1A toxin-binding protein of P. gossypiella BBMV (native BT-R2) (Pectinophora gossypiella); assay: immunoprecipitation of BBMV proteins with anti-Cry1Ab antiserum, then ligand blot
[8] = molecular target: 200 kD Cry1A toxin-binding protein of P. gossypiella BBMV (native BT-R2) (Pectinophora gossypiella); assay: two-dimensional gel of the electroeluted 200 kD band, ligand blot
[9] = molecular target: PBW-1269-1367, minimum binding fragment of BT-R2 (aa 1269-1367) (Pectinophora gossypiella); assay: truncation peptides tested for toxin binding (FIG. 4)
[10] = molecular target: 200 kD Cry1A toxin-binding protein of P. gossypiella BBMV (native BT-R2) (Pectinophora gossypiella); assay: immunoprecipitation with Cry1Ab and anti-toxin-protein A-Sepharose, then radioligand blot and Western blot
[11] = molecular target: T1, PBW-866 expressed protein (BT-R2 aa 1210-1496), 32 kD (Pectinophora gossypiella); assay: ligand blot of E. coli-expressed fragment

Measured: binding

Cry1Aa toxin (trypsinized 60 kD toxin) (from UniProt P0A366 29-619) (ligand)
binds: [1] | [2]

Cry1Ab toxin (trypsinized 60 kD toxin) (from UniProt P0A370 29-620) (ligand)
binds: all assays above

— patent US7094554
